The list does not hold the whole screen: it gathers tests that were run many times, whatever their T/C, doses with no T/C, and many T/C values between a quarter and a half above the control. Other doses and runs of a compound stand elsewhere. T/C is the treated group as % of the vehicle group. Some doses have a count of surviving animals in place of a T/C: the source holds a T/C of zero for them, seemingly a mark for toxic or unscored doses. Some survivor counts are full or nearly so, which does not show that the dose was tolerated: the source hardly ever lists a survival T/C far under the control, and the zero likely stands for such cases as well. Counts of survivors are from the toxicity check (mostly the fifth day) where no day follows; animals may have died later. Schedules are NCI's codes, taken here to give the interval after Q, in days (D) or hours (H), and the number of doses after X. Some schedule codes hold Z or #, which are not explained here. Counts like (3×) stand for listed records that agree. Some entries were tested several times; the results are listed from low to high. For survival time, the PubChem record calls one and a half times the control and up active, and a quarter to a half above the control has no call in these data; cut-offs in other NCI protocols can differ.
System: L1210 leukemia ip in BDF1 mice, survival T/C
Assay: NCI In Vivo Anticancer Drug Screen. Data for tumor model L1210 Leukemia (intraperitoneal) in B6D2F1 (BDF1) mice
Conditions: T/C endpoint: mean survival time, higher T/C = longer survival
[1] = dose: 200.0 mg/kg/injection, schedule: Q01DX009 (ip), vehicle: Klucel (hydroxypropylcellulose) (HPC)
[2] = dose: 200.0 mg/kg/injection, schedule: Q01DX001 (ip), vehicle: saline
[3] = dose: 400.0 mg/kg/injection, schedule: Q01DX001 (ip), vehicle: saline
[4] = dose: 75.0 mg/kg/injection, schedule: Q01DX001 (ip), vehicle: carboxymethylcellulose (CMC)
[5] = dose: 200.0 mg/kg/injection, schedule: Q04DX003 (ip), vehicle: saline
[6] = dose: 400.0 mg/kg/injection, schedule: Q04DX003 (ip), vehicle: saline
[7] = dose: 50.0 mg/kg/injection, schedule: Q01DX009 (ip), vehicle: saline
[8] = dose: 200.0 mg/kg/injection, schedule: Q04DX002 (ip), vehicle: saline
[9] = dose: 400.0 mg/kg/injection, schedule: Q04DX003 (ip), vehicle: saline with Tween-80
[10] = dose: 300.0 mg/kg/injection, schedule: Q01DX001 (ip), vehicle: saline
[11] = dose: 400.0 mg/kg/injection, schedule: Q04DX003 (ip), vehicle: Klucel (hydroxypropylcellulose) (HPC)
[12] = dose: 20.0 mg/kg/injection, schedule: Q01DX001 (ip), vehicle: saline
[13] = dose: 40.0 mg/kg/injection, schedule: Q01DX001 (ip), vehicle: saline
[14] = dose: 80.0 mg/kg/injection, schedule: Q01DX001 (ip), vehicle: saline

Which T/C (dose: 6.25 mg/kg/injection, schedule: Q01DX Z (ip), vehicle: carboxymethylcellulose (CMC)) does the source give for `CN(N=O)C(=O)NCCc1ccc(OC(=O)N(C)N=O)cc1` here?
The T/C was 125 % of control.

What about the survivor count (dose: 100.0 mg/kg/injection, schedule: Q01DX Z (ip), vehicle: carboxymethylcellulose (CMC)) of the same compound?
Its survivor count is 5 of 6.

How did the survivor count [1] turn out when `CCCCCCCCCCCCCCCCCC(=O)N/N=C/c1ccc(Cl)cc1` was run?
The survivor count was 6 of 6.

`C/C(=C/c1ccccc1)C(=O)NN` was tested. Which survivor count (dose: 320.0 mg/kg/injection, schedule: Q01DX001 (ip), vehicle: saline with Tween-80) did it give?
Its survivor count is 2 of 6.

For `NCCCC(=O)NCCCCCCNCCCCCCNC(=O)CCCN`, which survivor count [2] is on record?
The survivor count was 0 of 4.

What about the survivor count [3] of the same compound?
Its survivor count is 0 of 4.

What does the source list for `O=C(CN1CC1)NCCCCCCCNC(=O)CN1CC1`?
T/C (dose: 4.3 mg/kg/injection, schedule: Q01DX001 (ip), vehicle: carboxymethylcellulose (CMC)): 126 % of control; T/C (dose: 22.0 mg/kg/injection, schedule: Q01DX001 (ip), vehicle: carboxymethylcellulose (CMC)): 133 % of control; T/C (dose: 50.0 mg/kg/injection, schedule: Q01DX001 (ip), vehicle: carboxymethylcellulose (CMC)): 135 % of control; survivor count [4]: 6 of 6; survivor count (dose: 100.0 mg/kg/injection, schedule: Q01DX001 (ip), vehicle: carboxymethylcellulose (CMC)): 0 of 4; survivor count (dose: 200.0 mg/kg/injection, schedule: Q01DX001 (ip), vehicle: carboxymethylcellulose (CMC)): 0 of 4; survivor count (dose: 400.0 mg/kg/injection, schedule: Q01DX001 (ip), vehicle: carboxymethylcellulose (CMC)): 0 of 4

`CC(=O)OCC1OC(n2cnc3c(=O)[nH]c(N)nc32)C(OC(C)=O)C1OC(C)=O` (centres undefined) was tested. Which survivor count (dose: 100.0 mg/kg/injection, schedule: Q01DX005 (ip), vehicle: saline) did it give?
The survivor count was 6 of 6.

With `CCN(CC)CCOC(=O)/C=C/c1ccc([N+](=O)[O-])o1` as the compound, how does the survivor count (dose: 170.0 mg/kg/injection, schedule: Q01DX Z (ip), vehicle: saline) read?
Its survivor count is 3 of 6.

With `Cc1cc(C)c(NC(=O)N(CCCl)N=O)cc1C` as the compound, how does the T/C [4] read?
Its T/C is 135 % of control.

What about the T/C (dose: 150.0 mg/kg/injection, schedule: Q01DX001 (ip), vehicle: carboxymethylcellulose (CMC)) of the same compound?
Its T/C is 141 % of control.

And the T/C (dose: 300.0 mg/kg/injection, schedule: Q01DX001 (ip), vehicle: carboxymethylcellulose (CMC))?
Its T/C is 142 % of control.

And the survivor count (dose: 300.0 mg/kg/injection, schedule: Q01DX009 (ip), vehicle: carboxymethylcellulose (CMC))?
The survivor count was 6 of 6.

What about the survivor count (dose: 400.0 mg/kg/injection, schedule: Q01DX001 (ip), vehicle: other) of the same compound?
Its survivor count is 0 of 6.

With `CCCCCCCCCCCCCCCC[N+]1(C)CCN(SN2CC[N+](C)(CCCCCCCCCCCCCCCC)CC2)CC1` as the compound, how does the survivor count (dose: 100.0 mg/kg/injection, schedule: Q01DX009 (ip), vehicle: saline) read?
Its survivor count is 0 of 6.

And the survivor count [5]?
Its survivor count is 6 of 6.

What about the survivor count [6] of the same compound?
Its survivor count is 5 of 6.

Which survivor count (dose: 200.0 mg/kg/injection, schedule: Q01DX009 (ip), vehicle: gum acacia) does the source give for `OC(CC(O)(C(F)(F)F)C(F)(F)F)c1cccc(Cl)c1` (centres undefined) here?
Its survivor count is 3 of 6.

What about the survivor count (dose: 400.0 mg/kg/injection, schedule: Q04DX003 (ip), vehicle: gum acacia) of the same compound?
The survivor count was 2 of 6.

How did the survivor count [7] turn out when `O=C(CCN1CCCCC1)c1cc(Cl)ccc1Cl` was run?
Its survivor count is 3 of 3.

And the survivor count [8]?
Its survivor count is 0 of 3.

What about the survivor count (dose: 400.0 mg/kg/injection, schedule: Q04DX002 (ip), vehicle: saline) of the same compound?
The survivor count was 0 of 3.

For `O=[N+]([O-])c1ccc([N+](=O)[O-])c(Cl)c1`, which survivor count [1] is on record?
Its survivor count is 6 of 6.

And the survivor count [9]?
The survivor count was 6 of 6.

What does the source list for `CCCCCCCCCCCC[N+](C)(C)CCCCCCCCCCCC`?
survivor count (dose: 23.0 mg/kg/injection, schedule: Q01DX009 (ip), vehicle: saline): 4 of 6; survivor count (dose: 35.0 mg/kg/injection, schedule: Q01DX009 (ip), vehicle: saline): 0 of 6; survivor count [7]: 0 of 6

`N#C/C(=C\C1CCC(OCC2CCCCC2)CC1)C1CCC([N+](=O)[O-])CC1` (centres undefined) was tested. Which survivor count (dose: 200.0 mg/kg/injection, schedule: Q04DX002 (ip), vehicle: saline with Tween-80) did it give?
Its survivor count is 1 of 3.

And the survivor count (dose: 400.0 mg/kg/injection, schedule: Q04DX002 (ip), vehicle: saline with Tween-80)?
Its survivor count is 0 of 3.

`O=C1CC(c2ccccc2)C(c2ccccc2)C(=O)N1` (centres undefined) was tested. Which survivor count [10] did it give?
Its survivor count is 1 of 6.

For `CC/C=C(\CCC)C1(CC)C(=O)NC(=O)NC1=O`, which survivor count [10] is on record?
Its survivor count is 0 of 6.

`COCCN=C(NCCOC)c1ccc(Nc2ncnc3nc[nH]c23)cc1` was tested. Which survivor count [5] did it give?
Its survivor count is 0 of 6.

With `CCNC(=O)Nc1ccccc1` as the compound, how does the survivor count (dose: 400.0 mg/kg/injection, schedule: Q04DX002 (ip), vehicle: Klucel (hydroxypropylcellulose) (HPC)) read?
The survivor count was 1 of 3.

Which survivor count (dose: 200.0 mg/kg/injection, schedule: Q01DX009 (ip), vehicle: saline sonified) does the source give for `CC(=O)c1cc(C)[nH]c1C` here?
Its survivor count is 6 of 6.

And the survivor count [11]?
Its survivor count is 0 of 6.

Which survivor count [6] does the source give for `Cc1ccc[n+]([O-])c1Cl` here?
Its survivor count is 3 of 6.

Which results are given for `N=C(N)SC/C=C/CSC(=N)N`?
survivor count [5]: 2 of 6; survivor count [6]: 0 of 6

Which results are given for `C[N+]1(C)CCCC1`?
survivor count (dose: 100.0 mg/kg/injection, schedule: Q04DX003 (ip), vehicle: saline): 0 of 6; survivor count [5]: 0 of 6; survivor count [6]: 0 of 6

How did the survivor count (dose: 400.0 mg/kg/injection, schedule: Q01DX001 (ip), vehicle: saline with Tween-80) turn out when `N=c1c2ncn(C3CCCC3)c2ncn1O` was run?
Its survivor count is 0 of 6.

What does the source list for `C=CC(=O)O`?
survivor count (dose: 6.25 mg/kg/injection, schedule: Q04DX003 (ip), vehicle: saline): 0 of 6; survivor count (dose: 12.5 mg/kg/injection, schedule: Q04DX003 (ip), vehicle: saline with Tween-80): 1 of 6; survivor count [12]: 0 of 6; survivor count (dose: 25.0 mg/kg/injection, schedule: Q04DX003 (ip), vehicle: saline with Tween-80): 1 of 6; survivor count [13]: 0 of 6 and 1 of 6; survivor count (dose: 50.0 mg/kg/injection, schedule: Q01DX001 (ip), vehicle: saline): 4 of 4; survivor count (dose: 50.0 mg/kg/injection, schedule: Q04DX003 (ip), vehicle: Klucel (hydroxypropylcellulose) (HPC)): 2 of 3; survivor count (dose: 50.0 mg/kg/injection, schedule: Q04DX003 (ip), vehicle: saline with Tween-80): 1 of 6; survivor count [14]: 0 of 6 and 2 of 6; survivor count (dose: 100.0 mg/kg/injection, schedule: Q01DX001 (ip), vehicle: saline): 0 of 6 (2×); survivor count (dose: 100.0 mg/kg/injection, schedule: Q04DX003 (ip), vehicle: Klucel (hydroxypropylcellulose) (HPC)): 0 of 3; survivor count (dose: 100.0 mg/kg/injection, schedule: Q04DX003 (ip), vehicle: saline with Tween-80): 6 of 6; survivor count [2]: 0 of 6 (2×); survivor count (dose: 200.0 mg/kg/injection, schedule: Q04DX003 (ip), vehicle: Klucel (hydroxypropylcellulose) (HPC)): 0 of 3; survivor count [3]: 0 of 6 and 1 of 6; survivor count [11]: 0 of 3; survivor count [9]: 0 of 6

With `C=C(C)C(=O)OCC(O)C[N+](C)(C)C` (centres undefined) as the compound, how does the survivor count [10] read?
The survivor count was 2 of 6.

Which results are given for `CN1C(=O)C(Br)=C(Br)C1=O`?
survivor count [12]: 1 of 6; survivor count [13]: 0 of 6; survivor count (dose: 75.0 mg/kg/injection, schedule: Q01DX001 (ip), vehicle: saline): 1 of 6; survivor count [14]: 0 of 6; survivor count (dose: 150.0 mg/kg/injection, schedule: Q01DX001 (ip), vehicle: saline): 0 of 6; survivor count [10]: 0 of 6

How did the survivor count (dose: 100.0 mg/kg/injection, schedule: Q01DX001 (ip), vehicle: other) turn out when `O=C(CC(O)(C(F)(F)F)C(F)(F)F)C(Cl)C(O)(C(F)(F)F)C(F)(F)F` (centres undefined) was run?
The survivor count was 3 of 6.

With `OCC1OC(n2cnc3c(NCCNc4ncnc5c4ncn5C4OC(CO)C(O)C4O)ncnc32)C(O)C1O` (centres undefined) as the compound, how does the survivor count [8] read?
Its survivor count is 1 of 4.

— PubChem BioAssay AID248 (DTP/NCI, 2004)
